Library screening results

Source: ChEMBL document CHEMBL3988442, “University of Dundee, Small-Polar-MMV Screening Library” (2021).

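Viability assay of Plasmodium falciparum sporozoites; the read-out is not stated. The concentration is filed as 10 mM, unlikely as a test dose, so the dose is not known. The record gives no direction; compounds that gave an IC50 in retests scored well above the rest, so higher reads as lower viability. Strong results were mostly tested again. About 34,000 compounds were tested under these conditions; 0.84% (about 280) showed 50% or more at least once.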

Results are given as percent effect. The record does not define 0% and 100%; most values in the screen are far below 50% and negative numbers occur (in some assays of this library far below -100). The compounds are a random part of those screened. Two or more numbers in one place are separate tests of the same structure; such repeats can differ widely.

| Compound | Percent Effect |
|---|---|
| `CCc1nc(C)sc1CNC1CCN(Cc2ccccc2)C1` (configuration not stated) | 16.03 & 11.18 |
| `Cc1cc(S(=O)(=O)N(C)CC(N)=O)ccc1Br` | -3.781 |
| `c1cnc2nc(N3CCc4c(ncn4C4CC4)C3)ccc2n1` | -77.73 & -11.88 & -72.42 |
| `CCC(C)N(C)CCNC(=O)c1ccccc1OCCOC` (configuration not stated) | 0.94 |
| `CCc1nc(CN2CC(C(=O)OC)O[C@H](C)C2)cs1` (some centres not stated) | -11.08 |
| `Cc1cc(NC(=O)NCC(c2ccc(C)o2)N2CCOCC2)n(C)n1` (configuration not stated) | 28.69 & -8.709 & -6.466 |
| `Cc1nc(-c2nc(C(=O)NC3CC3)c3ccccn23)cn1C(C)C` | 58.89 & 55 & 41.86 |
| `Cc1cc(NS(=O)(=O)c2c[nH]c3ncccc23)no1` | 4.929 |
| `O=C(O)C(F)(F)F.O=C(O)C(F)(F)F.O=C(O)C(F)(F)F.[H][C@@]12CCN(Cc3nccs3)C[C@]1([H])[C@@H](CNc1ncccn1)OC2` | 3.71 |
| `COc1cccc(CNC(=O)c2ccccc2-n2cc(CN)cn2)c1` | -9.903 |
| `CC(=O)N1CCC2(CCCN(C(=O)CCN3CCCCC3)C2)C1` (configuration not stated) | -2.737 |
| `O=C(C1NCCc2[nH]cnc21)N1CCC2(CC1)CNc1ccccc12` (configuration not stated) | -4.462 |
| `O=C(NCc1cccc(F)c1)N1CCC2(CC(=O)N(c3ccsc3)C2)C1` (configuration not stated) | 3.157 |
| `Cc1cn[nH]c1C1COCCN1S(=O)(=O)c1cn[nH]c1` (configuration not stated) | 0.4051 |
| `COCCn1ccc(=O)c(OCC(=O)Nc2ccccc2)c1C` | 13.6 |
| `O=C(Cc1ccsc1)N1CCCC(c2cc(C(F)F)n3ncnc3n2)C1` (configuration not stated) | -2.29 |
| `Cc1nc(CN2CCC2(CCCc2ccccn2)C(=O)N(C)C)co1` (configuration not stated) | 12.32 |
| `CSCc1cccc(S(=O)(=O)NCc2cnn(C)c2C)c1` | -0.2176 |
| `COCC1CC2(CCN(C(=O)c3ccc(OC)c(Cl)c3)CC2)CO1` (configuration not stated) | 0.7821 |
| `CC1(C)CC(N(Cc2cccnc2)Cc2cccnc2)CC(C)(C)N1.O=C(O)CC(O)(CC(=O)O)C(=O)O` | -4.184 |
| `CCCc1nc(CNC(C)Cn2cccn2)cs1` (configuration not stated) | -8.242 |
| `Cc1ccc(CNC(=O)N2CCN(Cc3ccsc3)CC2)n1C` | -6.127 |
| `COC(=O)N1CCCN(C(=O)NCc2ccc(Cl)s2)CC1` | -13.37 |
| `CC(C#N)CSc1ccccc1NCC(=O)Nc1ccc(F)cc1` (configuration not stated) | 6.021 |
| `CCc1nsc(N2CCCN(C(=O)c3ccc(OC)cc3)CC2)n1` | 3.403 |
| `Cc1nc(NC(=O)c2ccc(-n3ncc(C#N)c3N)cc2)sc1C` | 26.72 |
| `Cc1nc(C)n(C2CCCN(C(=O)c3ccccc3C)C2)n1` (configuration not stated) | -7.168 |
| `CN1CCN(C(=O)c2cccc(OCc3cscn3)c2)CC1` | -4.187 |
| `CCC(O)CN1CCN(C(=O)c2cccn2Cc2cccs2)CC1` (configuration not stated) | -7.319 |
| `Cc1nnc(N2CCCC3(CN(Cc4ccc(C)s4)CCO3)C2)o1.O=C(O)C(F)(F)F.O=C(O)C(F)(F)F` (configuration not stated) | -17.31 |
| `CC(NCc1ccsc1)c1ccc2c(c1)NC(=O)CO2` (configuration not stated) | 8.573 |
| `COc1cccc(N2CCN(CC(O)c3cc(C)sc3C)CC2)c1` (configuration not stated) | -14.1 |
| `CCCc1cc(=O)[nH]c(-c2ccccc2CN(C)CCn2cccn2)n1` | -13 |
| `Cc1nc(CN2CCC3(CC2)NC(=O)CC3c2ccccc2)cs1.O=C(O)C(F)(F)F` (configuration not stated) | 3.853 |
| `CCC(O)CN1CCN(C(=O)c2ccnc(N(C)C)c2)CC1` (configuration not stated) | -14.71 |
| `Nc1nccc(-c2c[nH]nc2C2CCCCC2)n1` | -5.882 |
| `CC(C)(C)c1nc(CN2CCC(c3nc4cc(Cl)ccc4o3)CC2)no1` | -0.3529 |
| `O=C(CN1CCCCCC1=O)NC1CCc2nccn2C1` (configuration not stated) | -7.658 |
| `CN(C)C(=O)c1cccc(CN2CCOC(Cn3cccn3)C2)c1` (configuration not stated) | -2.472 |
| `CC(NC(=O)NCc1ccccc1)(C(=O)O)c1ccco1` (configuration not stated) | -2.424 |
| `CN1CCCN(c2nccc(-c3c[nH]c4ccc(Br)cc34)n2)CC1` | 10.58 |
| `O=C(NCc1nnc2n1CCCC2)N1CCc2sccc2C1` | 6.28 |
| `O=C(O)C(F)(F)F.[H][C@@]12CC(=O)N(CCN(C)C)[C@@]1([H])CCN2S(=O)(=O)c1ccccc1` | 11.8 |
| `Cc1csc(N2CCN(C(=O)CCNc3ncccn3)CC2)n1` | 1.6 |
| `CC(O)CN1CCN(Cc2coc(-c3ccc(Cl)cc3)n2)CC1` (configuration not stated) | 3.034 |
| `C1CC(c2noc(C3CC3)n2)CN(Cc2noc(C3CC3)n2)C1` (configuration not stated) | 1.6 |
| `CCc1ncncc1C(=O)N1CCCN(Cc2ccc(C#N)cc2)CC1` | -13.2 |
| `CC(=O)N1CC(c2ccnc(Nc3nccs3)n2)C1` | 5.775 |
| `CC(=O)Nc1cccc(OCCNC(=O)N(C)Cc2ccncc2)c1` | 4.412 |
| `CCOc1ccc(N(C)Cc2nc(C)c(C)o2)cc1` | 1.665 |
| `Cc1oncc1C(=O)N1CC2CC1(C(=O)N(C)C)C2` | 9.37 |
| `Cc1cnc(CC2COCCN(C(=O)CN3CCCCC3)C2)cn1` (configuration not stated) | 12.85 |
| `CCc1nc(CN(C(C)=O)C2CCN(Cc3cnc(C)cn3)C2)no1` (configuration not stated) | 1.727 |
| `CCCN(C(=O)c1cccnc1)c1nc2c(s1)CCc1c-2cnn1C` | 24.38 |
| `O=C(c1ccc(-c2cccc3c2CCNC3)o1)N1CCCC1` | -19.54 |
| `Cc1c(CCC(=O)N2CCOC(c3cnccn3)C2)cnn1C` (configuration not stated) | 5.554 |
| `CC(=O)N1CCCn2nc(CNS(=O)(=O)N3CCCCCC3)cc2C1` | 3.43 |
| `CCCc1nccn1CCn1cnc2ccsc2c1=O` | -1.6 |
| `CCCC(=O)N1CCC(C(=O)NCCNc2ncccn2)CC1` | 11.66 |
| `CCOCc1ccc(CNC(=O)N2CCC(C(N)=O)C2)cc1` (configuration not stated) | 6.211 |
| `CCc1nnc(CN2CCC3(CC2)Nc2ccccc2NC3=O)o1` | -1.421 |
| `Nc1cnc(-c2cccc3ccnn23)cn1` | -23.58 & 11.95 |
| `CCc1nc(C(=O)N2CCN(CC)CC2)nn1-c1ccccc1Cl` | 3.86 |
| `Cc1ccc(C(O)CNC(=O)NCc2c(C)cc(C)[nH]c2=O)cc1` (configuration not stated) | 11.22 |
| `COc1ccsc1C(=O)N1CCCC(n2cncn2)C1` (configuration not stated) | 1.019 |
| `CC(=O)N(Cc1ncc(C)o1)C1CCN(Cc2ccon2)C1` (configuration not stated) | 10.71 |
| `Cc1nnc2n1CCN(C(=O)c1cc(Cl)c(Cl)n1C)C2` | -0.8244 |
| `[H][C@@]12CN(S(=O)(=O)c3ccccc3)C[C@@]1([H])N(CC1CC1)C(=O)CO2` | -7.468 |
| `CCc1nnc2n1CCN(C(=O)Cc1nc(-c3ccco3)oc1C)C2` | 9.3 |
| `Cc1n[nH]c(C2CN(C(=O)c3cc(Cl)c[nH]3)CCO2)n1` (configuration not stated) | -8.23 |
| `CN1CC(C(=O)Nc2ccc(OCC(F)(F)C(F)F)nc2)CC1=O` (configuration not stated) | 6.48 |
| `[H][C@@]12C[C@@H](Oc3ccccc3)C[C@]1([H])CN(C(=O)c1cnc(N(C)C)nc1)C2` | 2.007 |
| `Cc1ccc(-c2nnc(CN3CCc4cnc(C)nc4C3)o2)cc1` | 3.206 & -6.075 & -3.091 |
| `COCCC(=O)N1CCCC(c2noc3nc(C)cc(C(F)(F)F)c23)C1` (configuration not stated) | -4.183 |
| `COCC1c2c(cnn2CC2CC2)CCN1Cc1cc(C)on1.O=C(O)C(F)(F)F.O=C(O)C(F)(F)F` (configuration not stated) | 9.612 |
| `CC(C)n1ccnc1CN1CCCN(C(=O)c2cccnc2O)CC1` | 11.92 |
| `Cc1cccc2cc(CNCCCN3CCOCC3)c(=O)[nH]c12` | 1.066 |
| `CCc1ncc2c(n1)CN(c1cc(NC3CC3)nc(N)n1)C2` | 7.007 |
| `Cn1nc(C#N)c2c1CN(C(=O)c1nc[nH]n1)CCC2` | 10.48 |
| `CCOC1CCN(C(=O)c2cc(-c3ccc(Cl)cc3)on2)CC1` | 3.514 |
| `CC(=O)NC1CCCN(C(=O)CCc2cccnc2)C1` (configuration not stated) | 12.99 |
| `CCOCC(=O)NC(C)c1cc(C)ccc1C` (configuration not stated) | -8.876 |

Once more, the final 10:

Cc1ccc(-c2nnc(CN3CCc4cnc(C)nc4C3)o2)cc1 gave 3.206% & -6.075% & -3.091%.
COCCC(=O)N1CCCC(c2noc3nc(C)cc(C(F)(F)F)c23)C1 (configuration not stated) gave -4.183%.
COCC1c2c(cnn2CC2CC2)CCN1Cc1cc(C)on1.O=C(O)C(F)(F)F.O=C(O)C(F)(F)F (configuration not stated) gave 9.612%.
CC(C)n1ccnc1CN1CCCN(C(=O)c2cccnc2O)CC1 gave 11.92%.
Cc1cccc2cc(CNCCCN3CCOCC3)c(=O)[nH]c12 gave 1.066%.
CCc1ncc2c(n1)CN(c1cc(NC3CC3)nc(N)n1)C2 gave 7.007%.
Cn1nc(C#N)c2c1CN(C(=O)c1nc[nH]n1)CCC2 gave 10.48%.
CCOC1CCN(C(=O)c2cc(-c3ccc(Cl)cc3)on2)CC1 gave 3.514%.
CC(=O)NC1CCCN(C(=O)CCc2cccnc2)C1 (configuration not stated) gave 12.99%.
CCOCC(=O)NC(C)c1cc(C)ccc1C (configuration not stated) gave -8.876%.